Measurements from publication PMC11024185.
Results are given in words; binding and its absence hold for the method and conditions named. In cells and extracts the contact can be indirect. Here binding means that the protein was enriched with, or labelled near, the bait; the list need not be complete. For some assays here: Where a sequence is shown, tags or fusion partners need not be part of it.

Legend:
[1] = target: T1, Ssf1-3xFLAG-3C-2xProteinA (S. cerevisiae) (UniProt P38789); assay: affinity purification with mass spectrometry; purification of pre-60S intermediates from a drs1 R569Q strain by tags on Drs1 R569Q (3x-Strep) and Ssf1 (2x-ProtA); Coomassie-stained 4-20% SDS-PAGE
T1 sequence: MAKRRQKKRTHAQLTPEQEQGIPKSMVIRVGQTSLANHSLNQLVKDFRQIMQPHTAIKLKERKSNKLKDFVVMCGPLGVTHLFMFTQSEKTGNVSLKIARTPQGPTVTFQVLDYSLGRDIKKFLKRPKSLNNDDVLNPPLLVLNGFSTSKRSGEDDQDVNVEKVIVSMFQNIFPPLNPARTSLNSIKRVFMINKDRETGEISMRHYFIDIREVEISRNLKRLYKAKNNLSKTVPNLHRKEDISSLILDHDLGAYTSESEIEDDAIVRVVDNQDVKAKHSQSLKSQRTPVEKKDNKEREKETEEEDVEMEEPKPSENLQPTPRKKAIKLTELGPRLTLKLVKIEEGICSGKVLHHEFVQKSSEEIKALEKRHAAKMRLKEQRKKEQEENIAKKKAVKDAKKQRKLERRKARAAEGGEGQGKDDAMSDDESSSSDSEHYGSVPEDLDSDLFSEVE

[2] = target: T2, Drs1 R569Q (3x-Strep-Drs1 R569Q) (S. cerevisiae) (UniProt P32892); assay: as above
T2 sequence: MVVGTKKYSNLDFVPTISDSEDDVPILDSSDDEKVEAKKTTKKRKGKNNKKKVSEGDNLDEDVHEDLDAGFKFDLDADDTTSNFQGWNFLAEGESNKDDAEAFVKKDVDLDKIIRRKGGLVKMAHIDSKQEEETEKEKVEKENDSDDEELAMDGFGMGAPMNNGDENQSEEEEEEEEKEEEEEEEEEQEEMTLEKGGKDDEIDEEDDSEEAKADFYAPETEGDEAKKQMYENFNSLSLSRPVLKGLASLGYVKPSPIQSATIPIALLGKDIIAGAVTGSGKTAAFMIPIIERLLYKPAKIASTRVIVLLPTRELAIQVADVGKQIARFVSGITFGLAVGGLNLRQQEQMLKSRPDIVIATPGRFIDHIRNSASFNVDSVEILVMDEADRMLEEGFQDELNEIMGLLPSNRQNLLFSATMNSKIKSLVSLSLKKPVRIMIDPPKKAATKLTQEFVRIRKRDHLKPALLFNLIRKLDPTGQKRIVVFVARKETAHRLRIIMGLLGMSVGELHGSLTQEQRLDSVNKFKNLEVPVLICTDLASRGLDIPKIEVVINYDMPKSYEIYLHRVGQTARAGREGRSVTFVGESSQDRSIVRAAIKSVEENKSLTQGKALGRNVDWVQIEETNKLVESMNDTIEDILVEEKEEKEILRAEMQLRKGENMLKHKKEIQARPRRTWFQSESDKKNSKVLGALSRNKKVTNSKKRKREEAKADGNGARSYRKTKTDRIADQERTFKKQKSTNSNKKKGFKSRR

[3] = target: T1, Ssf1-3xFLAG-3C-2xProteinA (S. cerevisiae); assay: affinity purification with mass spectrometry; split-tag purification of pre-60S particles from yeast overexpressing dbp10 R522V (β-estradiol, 1 h): IgG Sepharose on Ssf1-2xProteinA, 3C cleavage, then Strep-Tactin on Dbp10 R522V, bdNEDD8 protease elution; 50 mM Bis-Tris-Propane pH 8.0, 125 mM NaCl, 25 mM KCl, 10 mM MgCl2; Coomassie-stained 4-20% SDS-PAGE, bands named by molecular weight, ambiguous bands by mass spectrometry
[4] = target: T3, Dbp10 R522V (sfGFP-3xSTREP-bdNEDD8-MYC-dbp10 R522V) (S. cerevisiae) (UniProt Q12389); assay: as above
T3 sequence: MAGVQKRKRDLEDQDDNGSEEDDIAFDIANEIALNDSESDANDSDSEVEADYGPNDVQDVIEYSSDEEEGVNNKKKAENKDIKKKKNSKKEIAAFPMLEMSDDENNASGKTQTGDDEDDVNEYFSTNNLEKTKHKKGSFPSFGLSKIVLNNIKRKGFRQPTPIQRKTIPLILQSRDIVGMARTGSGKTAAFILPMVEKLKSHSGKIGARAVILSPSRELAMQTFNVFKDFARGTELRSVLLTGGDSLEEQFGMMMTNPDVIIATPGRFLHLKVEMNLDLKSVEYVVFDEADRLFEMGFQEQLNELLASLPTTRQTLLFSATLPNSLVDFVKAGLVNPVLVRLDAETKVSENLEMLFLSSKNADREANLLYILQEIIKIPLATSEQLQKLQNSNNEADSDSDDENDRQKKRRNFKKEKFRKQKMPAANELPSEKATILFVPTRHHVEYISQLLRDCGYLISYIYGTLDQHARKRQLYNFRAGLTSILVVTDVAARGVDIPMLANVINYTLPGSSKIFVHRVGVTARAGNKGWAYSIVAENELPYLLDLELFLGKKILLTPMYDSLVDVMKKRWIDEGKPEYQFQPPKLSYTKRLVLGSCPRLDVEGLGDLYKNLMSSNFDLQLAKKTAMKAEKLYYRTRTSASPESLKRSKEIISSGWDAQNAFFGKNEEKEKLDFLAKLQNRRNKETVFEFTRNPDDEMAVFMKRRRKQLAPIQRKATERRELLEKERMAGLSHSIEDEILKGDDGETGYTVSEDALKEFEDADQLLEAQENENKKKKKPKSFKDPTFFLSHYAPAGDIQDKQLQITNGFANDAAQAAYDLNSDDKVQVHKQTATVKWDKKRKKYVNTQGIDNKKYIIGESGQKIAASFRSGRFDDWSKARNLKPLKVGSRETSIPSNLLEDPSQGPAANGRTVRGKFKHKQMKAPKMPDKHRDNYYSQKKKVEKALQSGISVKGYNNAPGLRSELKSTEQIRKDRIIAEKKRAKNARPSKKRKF

Measured: binding

B1: Rlp7 (protein, UniProt P40693 1-322)
chain: MSSTQDSKAQTLNSNPEILLRKRRNADRTRIERQELAKKKREEQIKKKRSNKNKFVRAESIVAKTLATSREKERIKRVSILEDKKAKNETQHIASGKDFILKITEKANGAEENSVDLEETEEEEDDGLIREKTTYDGKPALLFIVRVRGPLAVNIPNKAFKILSLLRLVETNTGVFVKLTKNVYPLLKVIAPYVVIGKPSLSSIRSLIQKRGRIIYKGENEAEPHEIVLNDNNIVEEQLGDHGIICVEDIIHEIATMGESFSVCNFFLQPFKLNREVSGFGSLNRLRKIKQREAESRTRQFSNAATAPVIEVDIDSLLAKLN
binds: all assays above

B2: uL18 (protein, UniProt P26321 1-297)
chain: MAFQKDAKSSAYSSRFQTPFRRRREGKTDYYQRKRLVTQHKAKYNTPKYRLVVRFTNKDIICQIISSTITGDVVLAAAYSHELPRYGITHGLTNWAAAYATGLLIARRTLQKLGLDETYKGVEEVEGEYELTEAVEDGPRPFKVFLDIGLQRTTTGARVFGALKGASDGGLYVPHSENRFPGWDFETEEIDPELLRSYIFGGHVSQYMEELADDDEERFSELFKGYLADDIDADSLEDIYTSAHEAIRADPAFKPTEKKFTKEQYAAESKKYRQTKLSKEERAARVAAKIAALAGQQ
binds: all assays above

B3: Rrp1 (protein, UniProt P35178 1-278)
chain: METSNFVKQLSSNNRKTRVNALEALKKYLTAKQFKENKQIEFNKLWKGLYYAMWFSDRPRPQQRLANELGELHGLYFDPKDNSTADELTTNDKAFIKFSRGFWKVMCFEWFNIDRYRLDKYLLLIRRVLFSQLKYLQSRNWDKKLVDEYIKKVLRWLPLSGSPKVYTGIPIHIVDILLDEWERLLKDGDEDDEDEENKEEEMRKIAESAKKTPLADVIAIFQDIVADYNNSKVLREKIKEDLFSDTRLVSWDILEGETQHNDSSNESEEEEEEEWKGF
binds: all assays above

B4: Rpf1 (protein, UniProt P38805 1-295)
chain: MALGNEINITNKLKRQEIFADIKHEKNKERHTMRRKRAKEERENPELREQRLKENVTQTIENTRVYDETINKEVEGDEDDLMRYFNSNSNEPPKIFLTTNVNAKKSAYEFANILIEILPNVTFVKRKFGYKLKEISDICIKRNFTDIVIINEDKKKVTGLTFIHLPEGPTFYFKLSSFVEVKKIVGHGRPTSHIPELILNNFQTRLGQTVGRLFQSILPQNPDIEGRQVITLHNQRDYIFFRRHRYVFKDNERVGLQELGPQFTLKLKRLQRGIKEETEWEHKPEMDKEKKKFYL
binds: all assays above

B5: Brx1 (protein, UniProt Q08235 1-291)
chain: MSSIYKALAGKSKDNKSEKKQGNVKQFMNKQRTLLISSRGVNYRHRHLIQDLSGLLPHSRKEPKLDTKKDLQQLNEIAELYNCNNVLFFEARKHQDLYLWLSKPPNGPTIKFYIQNLHTMDELNFTGNCLKGSRPVLSFDQRFESSPHYQLIKELLVHNFGVPPNARKSKPFIDHVMSFSIVDDKIWVRTYEISHSTKNKEEYEDGEEDISLVEIGPRFVMTVILILEGSFGGPKIYENKQYVSPNVVRAQIKQQAAEEAKSRAEAAVERKIKRRENVLAADPLSNDALFK
binds: all assays above

B6: Nop15 (protein, UniProt P53927 1-220)
chain: MVKSTSKTSTKETVTKQPTEEKPIQEKEELALETSSSSSDEEDEKDEDEIEGLAASDDEQSGTHKIKRLNPKKQANEKKSKDKKTLEEYSGIIYVSRLPHGFHEKELSKYFAQFGDLKEVRLARNKKTGNSRHYGFLEFVNKEDAMIAQESMNNYLLMGHLLQVRVLPKGAKIEKLYKYKKRVLVEKGITKPVKQLKDNMKQKHEERIKKLAKSGIEFKW
binds: all assays above

B7: Rcm1 (enzyme, UniProt P53972 1-490)
chain: MNFYRDATWVLEDIEKEAAKERISGSMQTLVLKSCKRYKLKSNPKHIYAVLDSCWKYKPYLEKVMKKAHILEDIPKKKGKPLFSRLTLLLLCHDLLLSKQKRIQMGKHPIKDYVLKFKSPLHSEMVKLKLKLKVRELSELVLSEDISNDLPPVRWIRINPLKCHPNGETEPVLAELRKKFTLKVDKWSELVPGSIYYDEFIPNLFGIHPSDKITAHELYKHGKIIIQDRASCFPAHILNPGPSDIVIDSCSAPGNKTTHTASYIYPEPPKDNNTRIYAFEKDPERAKVLQKMIKIAGCSPNISVNVGDFTKLATPEKYKDVTCFIVDPSCSGSGIFGRKFFDSFNRRKIDDKDDDGGIVPDEQEEFIAKEELQTRLAKLSSFQFQMVKHAMSFPAAKKIVYSTCSIHAEENERVVIDLLLDKSVREWGWKVAPKREVIPSWPRRGKVEEFEEVFRDGVTYDPQQLAEGCIRALPKSDGGIGFFAVCFERD
binds: all assays above

B8: Ebp2 (protein, UniProt P36049 1-427)
chain: MAKGFKLKELLSHQKEIEKAEKLENDLKKKKSQELKKEEPTIVTASNLKKLEKKEKKADVKKEVAADTEEYQSQALSKKEKRKLKKELKKMQEQDATEAQKHMSGDEDESGDDREEEEEEEEEEEGRLDLEKLAKSDSESEDDSESENDSEEDEDVVAKEESEEKEEQEEEQDVPLSDVEFDSDADVVPHHKLTVNNTKAMKHALERVQLPWKKHSFQEHQSVTSETNTDEHIKDIYDDTERELAFYKQSLDAVLVARDELKRLKVPFKRPLDYFAEMVKSDEHMDKIKGKLIEEASDKKAREEARRQRQLKKFGKQVQNATLQKRQLEKRETLEKIKSLKNKRKHNEIDHSEFNVGVEEEVEGKRFDRGRPNGKRAAKNAKYGQGGMKRFKRKNDATSSADVSGFSSRKMKGKTNRPGKSRRARRF
binds: all assays above
